{
  "source": "patent US10376520B2",
  "about": "“Methods for the treatment of cardiovascular disorders” (Galapagos NV, priority 2015, dated 2019)",
  "tested_on": "RA patients",
  "experiment": "ApoA-I level (Selectra autoanalyzer), Study 4",
  "format": "in vivo, human",
  "details": "4 weeks",
  "procedure": "Randomized double-blind, placebo-controlled add on study in subjects with active RA who have an inadequate response to MTX monotherapy, in combination with methotrexate, administered for 4 weeks in the treatment of subjects with active rheumatoid arthritis who have an inadequate response to methotrexate alone.\nCompound 1 (dosed as a [Compound 1:HCl:3H2O]) capsules administered orally in 30 mg, 75 mg, 150 mg, or 300 mg doses per day for 4 weeks.\nApoAI, and ApoB were measured on the Selectra autoanalyzer (Sopachem BV, 44-RI Straat 33, 4051 AP Ochten, The Netherlands). All assays were commercially available from DiaSys Diagnostic Systems GmbH, Alte Strasse 9, 65558 Holzheim, Germany.",
  "note": "Where no unit stands, none is given here, and values compare only within one read-out.",
  "data": [
    {"smiles": "O=C(Nc1nc2cccc(-c3ccc(CN4CCS(=O)(=O)CC4)cc3)n2n1)C1CC1", "note": "[Compound 1, cyclopropanecarboxylic acid {5-[4-(1,1-dioxo-thiomorpholin-4-ylmethyl)-phenyl]-[1,2,4]triazolo[1,5-a]pyridin-2yl}-amide]", "values": [
      {"measurement": "ApoA-I level variation, t-test", "setting": "30 mg q.d.", "value": 0.2},
      {"measurement": "ApoA-I level variation, t-test", "setting": "75 mg q.d.", "value": 0.008},
      {"measurement": "ApoA-I level variation, t-test", "setting": "150 mg q.d.", "value": 0.2},
      {"measurement": "ApoA-I level variation, t-test", "setting": "300 mg q.d.", "value": "<0.0001"}
    ]}
  ]
}
